In US20190322724A1:
These are yes or no findings as the source states them, for the method shown. In cells and extracts the contact can be indirect. Some entries that bind do so weakly or less than the wild type.

Sequences of proteins named here, by UniProt entry; tags and fusion partners are left off. A change or cut given only in a name is not applied to a line headed by its entry. Residues count along the entry.
UniProt P14780, residues 20-707: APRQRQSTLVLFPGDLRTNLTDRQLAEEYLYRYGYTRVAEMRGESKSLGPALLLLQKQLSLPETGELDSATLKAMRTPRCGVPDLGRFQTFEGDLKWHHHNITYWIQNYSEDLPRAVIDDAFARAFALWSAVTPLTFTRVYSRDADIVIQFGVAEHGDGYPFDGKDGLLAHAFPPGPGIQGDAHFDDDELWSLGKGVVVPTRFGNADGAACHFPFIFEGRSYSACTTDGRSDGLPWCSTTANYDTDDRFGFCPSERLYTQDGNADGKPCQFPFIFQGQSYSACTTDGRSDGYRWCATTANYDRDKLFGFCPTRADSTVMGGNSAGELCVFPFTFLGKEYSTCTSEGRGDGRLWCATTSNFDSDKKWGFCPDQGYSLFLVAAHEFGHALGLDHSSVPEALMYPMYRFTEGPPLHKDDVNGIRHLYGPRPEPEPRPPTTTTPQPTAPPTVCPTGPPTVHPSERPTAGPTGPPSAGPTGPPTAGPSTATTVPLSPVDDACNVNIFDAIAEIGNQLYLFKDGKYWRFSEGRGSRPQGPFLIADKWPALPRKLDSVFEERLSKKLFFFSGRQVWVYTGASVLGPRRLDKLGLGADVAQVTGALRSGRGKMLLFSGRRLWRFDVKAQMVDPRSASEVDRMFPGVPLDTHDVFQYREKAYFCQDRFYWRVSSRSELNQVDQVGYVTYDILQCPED
UniProt P33434, residues 30-662: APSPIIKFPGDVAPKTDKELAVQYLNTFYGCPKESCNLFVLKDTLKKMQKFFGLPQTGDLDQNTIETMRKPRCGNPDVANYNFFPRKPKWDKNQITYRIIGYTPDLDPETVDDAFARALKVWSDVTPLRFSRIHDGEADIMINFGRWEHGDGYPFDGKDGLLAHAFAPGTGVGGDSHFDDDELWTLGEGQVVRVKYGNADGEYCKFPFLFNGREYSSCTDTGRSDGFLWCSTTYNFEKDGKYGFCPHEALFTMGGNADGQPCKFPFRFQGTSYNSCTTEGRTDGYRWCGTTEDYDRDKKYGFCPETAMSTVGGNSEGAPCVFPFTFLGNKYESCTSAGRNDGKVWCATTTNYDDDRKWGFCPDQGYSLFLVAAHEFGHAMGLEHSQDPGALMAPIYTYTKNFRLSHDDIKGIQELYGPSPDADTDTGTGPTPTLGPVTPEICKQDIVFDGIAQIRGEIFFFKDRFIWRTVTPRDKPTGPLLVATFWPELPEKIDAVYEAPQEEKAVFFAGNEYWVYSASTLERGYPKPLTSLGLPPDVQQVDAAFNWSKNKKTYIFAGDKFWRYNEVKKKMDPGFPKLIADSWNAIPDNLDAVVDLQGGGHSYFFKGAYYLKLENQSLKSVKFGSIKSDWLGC
UniProt P16035: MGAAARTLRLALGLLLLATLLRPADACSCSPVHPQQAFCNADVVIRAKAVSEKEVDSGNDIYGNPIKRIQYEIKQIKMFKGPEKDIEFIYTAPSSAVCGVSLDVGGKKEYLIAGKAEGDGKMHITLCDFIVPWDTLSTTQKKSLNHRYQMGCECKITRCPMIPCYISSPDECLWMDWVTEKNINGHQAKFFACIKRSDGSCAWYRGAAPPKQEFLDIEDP

Columns and labels:
[1] = target: endogenous MMP-9 in 293H conditioned media (human (endogenous protein of a human cell line)) (UniProt P14780); experiment: Ni-NTA pulldown from HEK293H CM, anti-MMP-9 immunoblot
[2] = target: endogenous secreted MMP-2 in conditioned media of SYF and SYF+c-Src mouse embryonic fibroblast cells (mouse (endogenous protein of mouse embryonic fibroblast cell lines)) (UniProt P33434); experiment: Ni-NTA pulldown from CM of transfected SYF and SYF+c-Src cells, immunoblot

Row | Substance | binding [1] | binding [2]
1 | TIMP-2 Y90E-His6 (from UniProt P16035 27-220) | binds | 
2 | TIMP-2 Y62E/Y90E/Y165E-His6 (from UniProt P16035 27-220) |  | binds
3 | wild type human TIMP-2 with C-terminal His6 tag (WT TIMP-2-His6) (from UniProt P16035 27-220) | binds | 
